Patent publication US20010046968A1, “Opioid growth factor modulates angiogenesis” (priority 2000, published 2001)
At least one compound was matched to its structure with a doubt left.

Test system: CAM blood vessels (angiogenesis)
Experiment: Chorioallantoic membrane (CAM) model, drug-impregnated methylcellulose disk, image analysis of blood vessels (Example 1)
Type: in vivo, chicken
Conditions: 1 μg per disk
Description: The CAM model utilized in these studies has been described by Mazo et al. (FASEB J. 13: A527, 1999). In brief, fertilized white broiler chicken eggs were obtained from a local hatchery and kept at room temperature for 48 hours. The outside of the shells were washed with soap, and placed in a 70% ethyl alcohol bath for 30 seconds. The eggs were incubated at 37° C. for three days and rotated 180 degrees three times daily. After incubation, the eggs were cleansed with an iodine solution and dried on a sterile tray. The eggs were cracked, and the embryos explanted into spherical plastic 100 mm×25 mm weigh boats. Specimens were covered with a plastic lid, placed in a humidified chamber at 37° C., and maintained for 48 to 72 hours until the CAM achieved at least a 10 mm diameter.
Methylcellulose disks were prepared as reported by Mazo et al. (FASEB J. 13: A527, 1999). […] These doses were selected on the basis of prior animal and culture studies (Zagon I. S. et al., Am. J Physiol, 270: R22-R32 (1996); McLaughlin P. J. et al., Int. J. Oncol., 14: 991-998 (1999)). An equivalent volume of distilled water was utilized as a control (n=13). Another series of experiments employed retinoic acid (RA: 1 μg) (Oikawa T. et al., Cancer Letters, 48: 157-162 (1989)) (n=12), VEGF (1 μg) (Wilting J. et al., Cell Tissue Res., 274: 163-174 (1993)) (n=10) and an equivalent volume of water (n=10) to validate the CAM model employed, and to provide an internal comparison to the potential angiogenic effects of OGF with other known angioactive agents. These methylcellulose solutions were placed on the tips of 3.2 mm diameter Teflon rods and allowed to dry at room temperature for 1 hour under a vacuum hood. The resultant dried disks were removed from the Teflon rods and placed on the outer third of the CAM. Only one disk was placed on each CAM. The eggs were returned to the incubator for an additional 48 hours of growth prior to examination by image analysis (Mazo J. E. et al., FASEB J., 13: A527 (1999)).
Image analysis was preformed as described previously (Mazo J. E. et al., FASEB J, 13: A527 (1999)). The location of the disk was located visually on the CAM. An identifying mark was placed in the center of the disk and 2 ml of a 10% intralipid solution was injected into the CAM obscuring the underlying yolk vessels and providing an opaque white background for the superficial vessels. The CAM was imaged on a three-chip digital camera (DKC 500 Sony, Tokyo, Japan), digitized, and exported to a personal computer (FIG. 1). A 100 mm^2 region was defined around the disk in which blood vessel quantitation was performed (Optimas 6.0, Mediacybernetics, Bothell, Wash.). Calibration was achieved by imaging a ruler placed adjacent to the embryo preparation.
All arteries and veins in this designated region centered on the applied disk were analyzed. From the digitized image, an overlying mask was created and all blood vessels were traced within the region in an unblinded manner by two different individuals. The total number of blood vessels were counted and their individual lengths added to obtain total blood vessel length.
Data were exported to Microsoft Excel (Excel 97, Microsoft, Redmond, Wash.). All values were expressed as the mean±standard error of the mean. Statistical analysis was performed using the SigmaStat 1.0 statistical software package (Jandel, San Rafael, Calif.). The Mann-Whitney rank sum test or the Student t test was used to compare continuous data. […]

## CC1=C(/C=C/C(C)=C/C=C/C(C)=C/C(=O)O)C(C)(C)CCC1 [Retinoic acid, retinoic acid, reference compound]
  effect on blood vessel growth vs control (words): inhibitory effect on blood vessel growth
  effect on calculated mean vessel length vs control: increase
  effect on number of blood vessels vs control: significantly diminished
  effect on total length of blood vessels vs control: decreased
Listed as retinoic acid
  effect on blood vessel growth vs control (words): marked decrease in blood vessel growth
